Assay results: PMC8225385
Substitutions are numbered along the chain they refer to. These are yes or no findings as the source states them, for the method shown. In cells and extracts the contact can be indirect. Some binding calls cover weakened binding; strength is not graded here. For some of these results: Where a sequence is shown, tags or fusion partners need not be part of it.

Legend:
[1] = target: T1, GST-RanGAP1 (human) (UniProt P46060); assay: pull-down; GST-fusion proteins (purified from E. coli) with lysate of unstimulated Jurkat E6.1 cells; PKC-θ detected by immunoblot; only the target purified
T1 sequence: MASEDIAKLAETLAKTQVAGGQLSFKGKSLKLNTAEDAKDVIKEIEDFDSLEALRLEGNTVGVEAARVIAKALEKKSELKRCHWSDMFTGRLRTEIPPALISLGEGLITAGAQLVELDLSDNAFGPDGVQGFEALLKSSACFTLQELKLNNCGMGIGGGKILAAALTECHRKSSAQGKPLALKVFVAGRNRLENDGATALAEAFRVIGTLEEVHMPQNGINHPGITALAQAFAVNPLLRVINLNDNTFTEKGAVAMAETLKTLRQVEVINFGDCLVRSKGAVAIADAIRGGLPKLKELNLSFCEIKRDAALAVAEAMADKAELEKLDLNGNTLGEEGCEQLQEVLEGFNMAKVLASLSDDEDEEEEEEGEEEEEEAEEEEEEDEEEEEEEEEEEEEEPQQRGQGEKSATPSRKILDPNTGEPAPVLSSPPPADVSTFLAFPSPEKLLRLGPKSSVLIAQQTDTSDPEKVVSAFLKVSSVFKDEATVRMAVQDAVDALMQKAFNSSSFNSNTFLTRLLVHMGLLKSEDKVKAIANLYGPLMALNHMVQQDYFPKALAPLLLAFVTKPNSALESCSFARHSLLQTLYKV

[2] = target: T1, GST-RanGAP1 (human); assay: pull-down; in vitro protein direct binding assay with GST-fusion proteins (scheme in Figure 2A; not described in the methods)
[3] = target: T2, RanGAP1, non-sumoylated form, endogenous, human (human (endogenous in Jurkat)) (UniProt P46060); assay: co-IP; reciprocal IPs of endogenous PKC-θ or RanGAP1 from Jurkat E6.1 cells stimulated 0-15 min with anti-CD3 plus anti-CD28; weak constitutive interaction with sumoylated RanGAP1, increased on stimulation
T2 sequence: T1 sequence

[4] = target: RanGAP1-SUMO1 (SUMO1-conjugated RanGAP1), endogenous, human (human (endogenous in Jurkat)) (UniProt P46060+P63165); assay: as above
[5] = target: T3, Flag-tagged RanGAP1-K524R (human) (UniProt P46060); assay: co-IP; reciprocal IPs from lysates of transfected Jurkat-TAg cells: tagged RanGAP1 with endogenous PKC-θ, or c-Myc-tagged PKC-θ with endogenous RanGAP1; immunoblot
T3 sequence: T1 sequence with K524R

[6] = target: c-Myc-tagged wild-type PKC-θ (UniProt Q04759); assay: as above
[7] = target: T4, c-Myc-tagged PKC-θ-A148E (UniProt Q04759); assay: as above
T4 sequence: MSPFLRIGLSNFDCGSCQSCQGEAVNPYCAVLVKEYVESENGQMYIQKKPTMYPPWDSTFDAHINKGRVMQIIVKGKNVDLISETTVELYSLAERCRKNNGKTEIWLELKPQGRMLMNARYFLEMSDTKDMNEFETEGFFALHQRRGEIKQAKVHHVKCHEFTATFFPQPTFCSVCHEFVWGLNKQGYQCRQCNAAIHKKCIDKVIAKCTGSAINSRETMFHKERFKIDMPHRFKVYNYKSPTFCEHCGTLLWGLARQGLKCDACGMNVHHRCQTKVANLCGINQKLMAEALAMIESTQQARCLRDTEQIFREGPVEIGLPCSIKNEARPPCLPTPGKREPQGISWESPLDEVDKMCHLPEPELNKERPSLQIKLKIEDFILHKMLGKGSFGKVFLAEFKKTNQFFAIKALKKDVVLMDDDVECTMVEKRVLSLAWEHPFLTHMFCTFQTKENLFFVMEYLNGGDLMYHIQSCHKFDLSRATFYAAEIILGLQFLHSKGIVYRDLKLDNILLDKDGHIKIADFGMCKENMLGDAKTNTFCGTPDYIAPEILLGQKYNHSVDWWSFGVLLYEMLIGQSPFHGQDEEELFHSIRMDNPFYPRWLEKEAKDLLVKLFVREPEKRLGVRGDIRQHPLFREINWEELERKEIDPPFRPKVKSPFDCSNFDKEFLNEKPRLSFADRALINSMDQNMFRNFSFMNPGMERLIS

Measured: binding

protein kinase C-θ (PKC-θ), endogenous, human T cells (from UniProt Q04759-1 1-706) (enzyme)
not listed: [6] | [7]
binds: all other assays above

RanGAP1-SUMO1 (SUMO1-conjugated RanGAP1), endogenous, human (from UniProt P46060 1-587; P63165 1-97) (complex)
binds: [6] | [7]
